Laboratory results from patent US5639616, “Isolated nucleic acid encoding a ubiquitous nuclear receptor” (Arch Development Corporation).

Target: T1, rUR full-length (ubiquitous nuclear receptor) (Rattus norvegicus) (UniProt Q62755)
T1 sequence: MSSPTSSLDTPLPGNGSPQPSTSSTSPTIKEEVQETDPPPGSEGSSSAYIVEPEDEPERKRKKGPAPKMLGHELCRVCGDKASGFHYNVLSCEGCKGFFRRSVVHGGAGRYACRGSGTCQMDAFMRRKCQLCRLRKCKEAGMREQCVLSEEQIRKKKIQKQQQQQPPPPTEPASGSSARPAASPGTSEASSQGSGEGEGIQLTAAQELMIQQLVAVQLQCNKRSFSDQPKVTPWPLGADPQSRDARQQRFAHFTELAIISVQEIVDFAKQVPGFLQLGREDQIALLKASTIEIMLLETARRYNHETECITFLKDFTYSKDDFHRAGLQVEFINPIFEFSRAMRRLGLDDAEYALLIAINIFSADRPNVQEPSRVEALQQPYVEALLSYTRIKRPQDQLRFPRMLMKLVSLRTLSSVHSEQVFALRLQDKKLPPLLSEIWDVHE
Assay: EMSA
Conditions: similar affinity DR-0 to DR-6, mainly homodimer; protein translated in vitro; label: 32P

| Sequence | binding result |
| --- | --- |
| GATCCTCAGGTCAAGGAGGTCAGAAGCT (double strand) [DR-3] | binds |
| GATCCTCAGGTCACCAAGGAGGTCAGAAGCT (double strand) [DR-6] | binds |
| GATCCTCAGGTCAGAGGTCAGAAGCT (double strand) [DR-1] | binds |
| GATCCTCAGGTCAAGGTCAGAAGCT (double strand) [DR-0] | binds |
| GATCCTCAGGTCAAGAGGTCAGAAGCT (double strand) [DR-2] | binds |
| GATCCTCAGGTCACCAGGAGGTCAGAAGCT (double strand) [DR-5] | binds |
| GATCCTCAGGTCACAGGAGGTCAGAAGCT (double strand) [DR-4] | binds |

For at least one entry, the source does not settle the construct or the ends of the probe. Tags and fusion partners may be left off the protein sequences shown.
